System: Arabidopsis thaliana
Assay: Sterol analysis (GC-MS) of plants treated with exogenous sterol
Format: in vivo
Conditions: 100 μM exogenous sterol

SMILES	total free sterols of the plants
CC(C)CCC[C@@H](C)[C@H]1CC[C@H]2[C@@H]3CC=C4C[C@@H](O)CC[C@]4(C)[C@H]3CC[C@]12C [cholesterol, Cholesterol]	decrease
CC[C@H](/C=C/[C@@H](C)[C@H]1CC[C@H]2[C@@H]3CC=C4C[C@@H](O)CC[C@]4(C)[C@H]3CC[C@]12C)C(C)C [stigmasterol]	stayed about the same

From patent US20220312762A1, “USE OF ENCAPSULATED STEROLS TO MODIFY GROWTH OF CROPS, CONTROL, AGRICULTURAL PESTS AND AS NON-TOXIC PRE-EMERGENT HERBICIDES” (The Texas A&M University System, priority 2019, published 2022)
